The results in this text go back to paper PMC10878149.

Assay [1] addresses COP9 signalosome subunit 5 (human (endogenous in A2780/DDP)) (UniProt Q92905). The assay is described as follows: co-IP; endogenous proteins; A2780/DDP whole-cell protein in NP40 lysis buffer, IP with anti-CSN5, anti-CRT or control IgG overnight at 4 °C, protein A/G magnetic beads, washed with PBST, immunoblot; also cells with or without CSN5 ablation exposed to cisplatin (20 μM). (Immunoblotting shows a protein as a band on a membrane.)

The next assay addresses T1, HA-OGA (UniProt O60502).
T1 sequence: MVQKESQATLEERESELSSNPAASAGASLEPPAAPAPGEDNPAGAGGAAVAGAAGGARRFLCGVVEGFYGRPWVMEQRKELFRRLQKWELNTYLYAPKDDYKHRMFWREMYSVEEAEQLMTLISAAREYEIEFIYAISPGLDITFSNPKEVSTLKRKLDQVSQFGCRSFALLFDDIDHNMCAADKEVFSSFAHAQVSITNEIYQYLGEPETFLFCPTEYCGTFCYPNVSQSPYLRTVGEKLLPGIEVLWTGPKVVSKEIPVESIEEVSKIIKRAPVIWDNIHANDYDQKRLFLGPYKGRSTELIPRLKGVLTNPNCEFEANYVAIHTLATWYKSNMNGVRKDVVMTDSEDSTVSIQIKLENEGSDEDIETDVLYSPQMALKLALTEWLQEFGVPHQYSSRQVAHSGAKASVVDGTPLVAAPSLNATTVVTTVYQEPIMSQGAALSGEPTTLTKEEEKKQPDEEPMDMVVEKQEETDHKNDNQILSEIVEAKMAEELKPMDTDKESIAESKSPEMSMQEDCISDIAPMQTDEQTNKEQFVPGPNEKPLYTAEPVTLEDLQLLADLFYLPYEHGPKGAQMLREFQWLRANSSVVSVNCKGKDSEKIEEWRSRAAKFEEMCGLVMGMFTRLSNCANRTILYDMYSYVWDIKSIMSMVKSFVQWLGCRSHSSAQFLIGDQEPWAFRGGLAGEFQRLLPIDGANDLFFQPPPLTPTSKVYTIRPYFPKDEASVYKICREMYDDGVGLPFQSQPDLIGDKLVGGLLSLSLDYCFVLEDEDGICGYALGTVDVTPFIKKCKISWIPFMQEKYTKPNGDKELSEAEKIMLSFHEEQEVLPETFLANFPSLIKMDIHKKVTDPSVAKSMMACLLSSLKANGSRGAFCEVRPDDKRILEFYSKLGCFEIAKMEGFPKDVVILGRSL
The assay is described as follows: co-IP; HEK293T co-transfected with Flag-CSN5 and HA-OGA, or His-CRT and HA-OGA, 24 h; reciprocal IP-IB with the indicated antibodies.

Assay [2] addresses Calreticulin (human (endogenous in A2780/DDP)) (UniProt P27797). The assay is described as follows: co-IP; endogenous proteins; A2780/DDP whole-cell protein in NP40 lysis buffer, IP with anti-CSN5, anti-CRT or control IgG overnight at 4 °C, protein A/G magnetic beads, washed with PBST, immunoblot; also cells with or without CSN5 ablation exposed to cisplatin (20 μM).
The target of a further assay is His-CRT (UniProt P27797). The assay is described as follows: co-IP; HEK293T co-transfected with Flag-CSN5 and HA-OGA, or His-CRT and HA-OGA, 24 h; reciprocal IP-IB with the indicated antibodies.

Results are given in words; binding and its absence hold for the method and conditions named. In cells and extracts the contact can be indirect. Some binding calls cover weakened binding; strength is not graded here. For some assays here: Tags and fused reporters may be left off the sequences shown.

“Calreticulin (from UniProt P27797 18-417)”: in assay [1], the binding entry was “binds”.

As for Flag-CSN5 (from UniProt Q92905 1-334), the binding entry with HA-OGA is “binds”.

B1: O-GlcNAcase (enzyme, UniProt O60502 1-916)
chain: T1 sequence
With B1, the binding result in assay [1] and in assay [2] was “binds” in each case.

B2: HA-OGA (enzyme, UniProt O60502 1-916)
chain: T1 sequence
Take B2: the binding entry in the assay with His-CRT is “binds”.
